From ChEMBL document CHEMBL3826926, “Kinetic and structural insights into the binding of histone deacetylase 1 and 2 (HDAC1, 2) inhibitors” (Bioorg Med Chem, 2016) come the findings set out here.

By UniProt entry, the sequences of proteins in these tests, tags left out. Where a name states a change or a piece, a line headed by the entry shows the natural chain unless it says otherwise.
UniProt Q13547, whole entry: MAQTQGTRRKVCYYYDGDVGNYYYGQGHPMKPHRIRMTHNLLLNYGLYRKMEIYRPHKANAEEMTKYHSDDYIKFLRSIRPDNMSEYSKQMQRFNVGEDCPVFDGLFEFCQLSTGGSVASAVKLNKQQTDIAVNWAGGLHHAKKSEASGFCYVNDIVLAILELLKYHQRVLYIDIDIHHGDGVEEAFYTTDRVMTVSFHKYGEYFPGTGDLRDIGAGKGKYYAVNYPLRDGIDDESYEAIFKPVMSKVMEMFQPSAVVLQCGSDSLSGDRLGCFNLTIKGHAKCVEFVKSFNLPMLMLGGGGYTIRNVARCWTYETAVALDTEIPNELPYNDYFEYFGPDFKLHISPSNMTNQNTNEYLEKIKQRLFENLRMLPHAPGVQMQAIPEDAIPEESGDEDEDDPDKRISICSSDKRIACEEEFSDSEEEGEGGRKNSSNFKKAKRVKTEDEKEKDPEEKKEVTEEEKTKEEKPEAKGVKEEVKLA
UniProt O15379: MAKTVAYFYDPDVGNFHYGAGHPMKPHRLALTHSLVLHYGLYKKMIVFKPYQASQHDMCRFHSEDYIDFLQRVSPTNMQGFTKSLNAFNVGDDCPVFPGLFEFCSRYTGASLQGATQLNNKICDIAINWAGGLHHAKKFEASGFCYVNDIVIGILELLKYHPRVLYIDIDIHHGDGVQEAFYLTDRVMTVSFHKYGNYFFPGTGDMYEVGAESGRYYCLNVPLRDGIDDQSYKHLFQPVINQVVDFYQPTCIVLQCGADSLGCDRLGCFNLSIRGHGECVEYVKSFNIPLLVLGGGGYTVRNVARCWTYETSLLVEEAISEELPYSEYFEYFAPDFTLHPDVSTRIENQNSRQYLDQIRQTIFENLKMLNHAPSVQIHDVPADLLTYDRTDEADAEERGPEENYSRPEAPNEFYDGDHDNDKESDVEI

One assay addresses Histone deacetylase 1 (Homo sapiens, UniProt Q13547). Conditions: Sf9.
A further assay concerns the target Histone deacetylase 3 (Homo sapiens, UniProt O15379).

As to `Nc1ccc(-c2ccc(Cl)cc2)cc1NC(=O)C1CCOCC1`, the T1/2 at Histone deacetylase 1 was 1.52 min; at Histone deacetylase 3, 14.2 min.
